± gives the standard deviation of the averaged measurements. This is a selection; strong and weak results do not stand in their true shares. Small differences around the control level are noise.
compound: Nc1ncnc2c1ncn2[C@@H]1O[C@H](COP(=O)(O)OP(=O)(O)OP(=O)(O)O)[C@@H](O)[C@H]1O [adenosine triphosphate]; assay: NP40-soluble protein abundance relative to vehicle (solubility fold change) (ratio); higher = more soluble protein in presence of ATP; settings: concentration: 0.1mM
Procedure, shortened: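 Jurkat crude lysate prepared with a Dounce homogeniser was treated at eight concentrations spanning 0.1 to 10 mM, 10 min at room temperature then 3 min at 37 °C. Solubilisation with 0.8% NP40 and benzonase and ultracentrifugation preceded TMT labelling of the supernatant for LC-MS/MS. Fold change against the detergent-processed vehicle was determined per replicate from vsn-normalised intensities, across three independent experiments.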

Chains of the proteins cited; added tags and fusions are not shown. Lines headed by an entry give the natural chain unless they say otherwise; changes in a name come on top.
UniProt Q05655: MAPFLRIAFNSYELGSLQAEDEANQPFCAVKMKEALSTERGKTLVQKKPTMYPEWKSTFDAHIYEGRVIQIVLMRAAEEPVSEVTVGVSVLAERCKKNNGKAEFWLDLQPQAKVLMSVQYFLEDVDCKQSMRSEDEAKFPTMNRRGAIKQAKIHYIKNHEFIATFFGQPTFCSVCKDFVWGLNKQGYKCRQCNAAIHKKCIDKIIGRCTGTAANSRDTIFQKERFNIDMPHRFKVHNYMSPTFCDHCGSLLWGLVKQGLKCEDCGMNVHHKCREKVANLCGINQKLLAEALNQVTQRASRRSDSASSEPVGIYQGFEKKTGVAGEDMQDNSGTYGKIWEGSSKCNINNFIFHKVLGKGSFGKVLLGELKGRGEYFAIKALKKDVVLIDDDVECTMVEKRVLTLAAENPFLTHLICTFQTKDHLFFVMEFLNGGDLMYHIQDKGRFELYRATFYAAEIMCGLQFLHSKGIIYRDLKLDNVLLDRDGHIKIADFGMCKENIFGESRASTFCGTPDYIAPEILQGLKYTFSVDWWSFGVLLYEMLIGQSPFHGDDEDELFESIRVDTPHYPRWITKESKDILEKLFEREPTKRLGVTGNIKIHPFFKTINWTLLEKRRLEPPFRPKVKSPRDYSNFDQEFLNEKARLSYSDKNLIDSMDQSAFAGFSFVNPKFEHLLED
UniProt Q08AF3: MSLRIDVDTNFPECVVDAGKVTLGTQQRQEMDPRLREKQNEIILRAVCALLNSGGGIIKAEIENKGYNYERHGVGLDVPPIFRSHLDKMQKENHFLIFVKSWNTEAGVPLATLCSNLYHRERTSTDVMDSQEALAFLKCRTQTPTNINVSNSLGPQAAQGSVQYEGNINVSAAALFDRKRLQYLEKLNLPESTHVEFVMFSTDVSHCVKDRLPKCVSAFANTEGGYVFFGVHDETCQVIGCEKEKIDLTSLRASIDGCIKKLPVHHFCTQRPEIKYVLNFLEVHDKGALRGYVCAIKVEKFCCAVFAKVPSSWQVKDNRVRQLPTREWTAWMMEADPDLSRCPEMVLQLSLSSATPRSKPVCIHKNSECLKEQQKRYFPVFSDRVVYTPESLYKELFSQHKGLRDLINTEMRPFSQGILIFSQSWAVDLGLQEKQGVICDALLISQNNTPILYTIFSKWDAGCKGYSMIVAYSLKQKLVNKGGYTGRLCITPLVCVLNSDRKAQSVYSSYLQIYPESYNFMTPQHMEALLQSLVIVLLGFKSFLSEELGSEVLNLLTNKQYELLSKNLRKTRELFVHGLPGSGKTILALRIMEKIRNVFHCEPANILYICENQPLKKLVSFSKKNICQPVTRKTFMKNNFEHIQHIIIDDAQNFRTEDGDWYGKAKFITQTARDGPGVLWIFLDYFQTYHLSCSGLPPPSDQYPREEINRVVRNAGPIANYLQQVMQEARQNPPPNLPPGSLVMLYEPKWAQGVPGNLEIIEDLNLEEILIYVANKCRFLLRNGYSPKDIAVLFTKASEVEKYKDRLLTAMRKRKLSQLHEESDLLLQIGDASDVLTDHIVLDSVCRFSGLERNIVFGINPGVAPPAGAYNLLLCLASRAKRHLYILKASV
UniProt Q07666, whole entry: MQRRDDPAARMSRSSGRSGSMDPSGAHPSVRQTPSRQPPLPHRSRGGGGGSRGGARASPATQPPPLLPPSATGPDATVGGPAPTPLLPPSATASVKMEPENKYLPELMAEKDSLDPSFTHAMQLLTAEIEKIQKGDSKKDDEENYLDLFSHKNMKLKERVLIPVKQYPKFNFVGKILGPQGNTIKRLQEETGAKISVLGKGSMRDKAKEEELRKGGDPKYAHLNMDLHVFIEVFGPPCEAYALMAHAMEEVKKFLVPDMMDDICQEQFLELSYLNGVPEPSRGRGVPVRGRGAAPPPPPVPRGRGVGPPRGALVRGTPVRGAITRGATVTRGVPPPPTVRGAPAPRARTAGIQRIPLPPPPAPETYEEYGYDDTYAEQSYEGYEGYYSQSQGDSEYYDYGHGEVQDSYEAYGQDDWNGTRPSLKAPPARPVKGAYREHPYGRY
UniProt Q13263: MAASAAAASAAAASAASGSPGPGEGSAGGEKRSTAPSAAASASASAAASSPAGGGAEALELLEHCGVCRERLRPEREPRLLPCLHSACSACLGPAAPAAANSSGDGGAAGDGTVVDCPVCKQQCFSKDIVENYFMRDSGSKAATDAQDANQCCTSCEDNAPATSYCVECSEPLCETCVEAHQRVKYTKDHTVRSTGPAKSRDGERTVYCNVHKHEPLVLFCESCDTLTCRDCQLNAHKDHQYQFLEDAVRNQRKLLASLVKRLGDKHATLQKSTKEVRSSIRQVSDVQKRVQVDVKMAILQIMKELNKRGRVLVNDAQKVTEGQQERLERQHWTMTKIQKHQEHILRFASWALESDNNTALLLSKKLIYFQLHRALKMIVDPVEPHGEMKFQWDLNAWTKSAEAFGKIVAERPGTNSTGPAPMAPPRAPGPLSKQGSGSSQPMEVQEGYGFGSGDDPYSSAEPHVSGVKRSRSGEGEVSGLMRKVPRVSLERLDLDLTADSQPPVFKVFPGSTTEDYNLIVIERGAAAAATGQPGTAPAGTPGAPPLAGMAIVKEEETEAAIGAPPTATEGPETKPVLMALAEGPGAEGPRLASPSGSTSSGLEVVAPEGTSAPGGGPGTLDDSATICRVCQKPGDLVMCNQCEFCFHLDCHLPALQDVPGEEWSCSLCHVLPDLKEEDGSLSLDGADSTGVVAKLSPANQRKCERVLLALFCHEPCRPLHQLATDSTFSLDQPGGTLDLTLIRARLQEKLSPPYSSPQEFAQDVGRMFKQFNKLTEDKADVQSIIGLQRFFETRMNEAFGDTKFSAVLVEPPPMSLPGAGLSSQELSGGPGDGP
UniProt Q13951, whole entry: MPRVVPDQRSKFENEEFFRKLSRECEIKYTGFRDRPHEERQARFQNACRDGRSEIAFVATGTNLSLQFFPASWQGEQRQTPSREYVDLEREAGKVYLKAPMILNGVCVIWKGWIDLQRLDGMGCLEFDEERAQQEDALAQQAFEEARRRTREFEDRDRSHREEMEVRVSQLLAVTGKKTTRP
UniProt Q13469: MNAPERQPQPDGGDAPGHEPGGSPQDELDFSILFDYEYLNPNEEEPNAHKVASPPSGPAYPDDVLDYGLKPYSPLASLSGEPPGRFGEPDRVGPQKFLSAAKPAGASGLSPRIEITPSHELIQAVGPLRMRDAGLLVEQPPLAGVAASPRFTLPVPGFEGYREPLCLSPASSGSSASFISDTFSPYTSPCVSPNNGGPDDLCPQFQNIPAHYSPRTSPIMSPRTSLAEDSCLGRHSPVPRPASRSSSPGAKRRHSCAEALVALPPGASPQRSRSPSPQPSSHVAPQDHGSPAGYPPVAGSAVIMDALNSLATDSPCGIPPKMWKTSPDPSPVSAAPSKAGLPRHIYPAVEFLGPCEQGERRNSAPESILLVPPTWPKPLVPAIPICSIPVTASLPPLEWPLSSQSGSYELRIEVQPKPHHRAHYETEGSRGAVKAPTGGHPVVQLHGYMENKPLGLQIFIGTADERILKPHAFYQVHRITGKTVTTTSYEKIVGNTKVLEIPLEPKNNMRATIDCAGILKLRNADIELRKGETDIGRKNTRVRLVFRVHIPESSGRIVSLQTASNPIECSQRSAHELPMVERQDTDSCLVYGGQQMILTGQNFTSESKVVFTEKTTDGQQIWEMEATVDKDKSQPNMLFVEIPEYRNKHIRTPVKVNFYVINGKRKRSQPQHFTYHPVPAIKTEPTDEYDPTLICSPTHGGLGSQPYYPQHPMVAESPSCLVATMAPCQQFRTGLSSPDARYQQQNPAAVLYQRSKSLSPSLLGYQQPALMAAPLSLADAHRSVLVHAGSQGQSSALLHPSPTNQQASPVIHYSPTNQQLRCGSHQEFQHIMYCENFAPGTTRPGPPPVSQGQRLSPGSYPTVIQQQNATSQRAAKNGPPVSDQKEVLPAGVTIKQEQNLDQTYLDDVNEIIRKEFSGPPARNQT
UniProt Q12906, whole entry: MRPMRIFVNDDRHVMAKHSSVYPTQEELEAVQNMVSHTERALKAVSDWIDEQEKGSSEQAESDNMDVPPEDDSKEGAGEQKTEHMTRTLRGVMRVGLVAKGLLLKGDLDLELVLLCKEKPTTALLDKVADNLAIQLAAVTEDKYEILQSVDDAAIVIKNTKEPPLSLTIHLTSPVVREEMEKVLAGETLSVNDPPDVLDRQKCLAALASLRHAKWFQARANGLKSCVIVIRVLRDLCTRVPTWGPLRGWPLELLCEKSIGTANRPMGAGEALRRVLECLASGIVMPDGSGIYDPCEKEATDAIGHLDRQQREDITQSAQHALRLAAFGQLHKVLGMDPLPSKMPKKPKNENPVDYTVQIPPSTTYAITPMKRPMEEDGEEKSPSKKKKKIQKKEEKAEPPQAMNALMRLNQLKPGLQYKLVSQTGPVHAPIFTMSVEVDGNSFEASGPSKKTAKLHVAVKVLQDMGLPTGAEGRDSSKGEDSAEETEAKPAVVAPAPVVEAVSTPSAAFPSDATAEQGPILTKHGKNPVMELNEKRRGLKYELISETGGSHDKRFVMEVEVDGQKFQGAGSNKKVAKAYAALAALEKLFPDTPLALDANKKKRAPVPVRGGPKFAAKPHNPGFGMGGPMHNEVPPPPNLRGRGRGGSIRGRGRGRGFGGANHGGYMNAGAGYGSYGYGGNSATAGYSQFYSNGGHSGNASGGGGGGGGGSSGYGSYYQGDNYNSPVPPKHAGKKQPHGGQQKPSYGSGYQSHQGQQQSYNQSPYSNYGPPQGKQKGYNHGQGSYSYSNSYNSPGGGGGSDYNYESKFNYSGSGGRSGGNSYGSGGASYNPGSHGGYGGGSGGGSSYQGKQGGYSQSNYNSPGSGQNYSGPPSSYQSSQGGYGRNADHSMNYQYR
UniProt Q02338: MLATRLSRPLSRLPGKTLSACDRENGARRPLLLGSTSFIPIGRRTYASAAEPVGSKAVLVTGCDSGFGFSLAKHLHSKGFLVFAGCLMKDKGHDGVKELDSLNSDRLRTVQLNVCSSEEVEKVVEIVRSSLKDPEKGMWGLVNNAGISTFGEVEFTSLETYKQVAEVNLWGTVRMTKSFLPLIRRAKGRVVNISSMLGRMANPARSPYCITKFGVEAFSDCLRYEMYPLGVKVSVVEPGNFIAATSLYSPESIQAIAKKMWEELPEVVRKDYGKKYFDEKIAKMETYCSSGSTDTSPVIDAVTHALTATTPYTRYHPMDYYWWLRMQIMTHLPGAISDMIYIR
UniProt Q0VG06: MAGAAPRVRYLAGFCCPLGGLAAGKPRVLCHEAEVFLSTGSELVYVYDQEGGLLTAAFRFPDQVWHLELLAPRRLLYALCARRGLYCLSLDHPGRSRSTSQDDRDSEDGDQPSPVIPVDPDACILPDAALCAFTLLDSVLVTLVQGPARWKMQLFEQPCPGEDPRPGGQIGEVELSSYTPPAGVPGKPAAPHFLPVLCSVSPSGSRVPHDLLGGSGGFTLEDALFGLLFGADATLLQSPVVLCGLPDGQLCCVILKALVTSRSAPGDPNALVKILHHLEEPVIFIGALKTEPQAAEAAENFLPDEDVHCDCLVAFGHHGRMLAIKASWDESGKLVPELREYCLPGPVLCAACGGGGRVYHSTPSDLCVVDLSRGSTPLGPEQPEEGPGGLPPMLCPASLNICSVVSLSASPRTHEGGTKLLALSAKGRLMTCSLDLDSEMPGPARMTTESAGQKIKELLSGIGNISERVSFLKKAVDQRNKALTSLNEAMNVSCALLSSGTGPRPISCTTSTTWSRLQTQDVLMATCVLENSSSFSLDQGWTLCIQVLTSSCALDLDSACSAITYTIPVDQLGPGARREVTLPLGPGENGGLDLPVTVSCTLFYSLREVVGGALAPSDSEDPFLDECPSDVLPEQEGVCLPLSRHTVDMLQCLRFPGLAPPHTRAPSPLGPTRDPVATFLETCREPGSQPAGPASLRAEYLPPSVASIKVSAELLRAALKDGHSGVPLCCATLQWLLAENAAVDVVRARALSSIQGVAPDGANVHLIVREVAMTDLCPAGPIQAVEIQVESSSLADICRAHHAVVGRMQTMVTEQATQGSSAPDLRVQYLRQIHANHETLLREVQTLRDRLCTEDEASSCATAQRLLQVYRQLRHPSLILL
UniProt Q05639, whole entry: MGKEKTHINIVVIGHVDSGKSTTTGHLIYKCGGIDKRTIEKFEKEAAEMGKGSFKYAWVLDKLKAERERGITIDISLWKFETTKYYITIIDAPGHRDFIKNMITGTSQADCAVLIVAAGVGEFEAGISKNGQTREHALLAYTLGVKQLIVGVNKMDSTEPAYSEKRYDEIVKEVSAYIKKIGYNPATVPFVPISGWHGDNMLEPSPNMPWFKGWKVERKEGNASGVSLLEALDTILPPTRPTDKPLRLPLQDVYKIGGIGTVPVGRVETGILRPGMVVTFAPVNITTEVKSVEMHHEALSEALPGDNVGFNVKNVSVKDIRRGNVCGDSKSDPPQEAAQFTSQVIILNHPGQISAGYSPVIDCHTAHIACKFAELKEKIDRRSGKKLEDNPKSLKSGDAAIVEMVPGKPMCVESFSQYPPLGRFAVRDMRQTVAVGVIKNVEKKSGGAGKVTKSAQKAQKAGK

Target	NP40-soluble protein abundance
SSBP1 (UniProt Q04837)	0.979 ± 0.044
UniProt Q05655	1.07 ± 0.061
RPL6 (UniProt Q02878)	0.968 ± 0.069
UniProt Q08623 and related entries	1.01 ± 0.073
UniProt Q0VD83 and related entries	1.08 ± 0.12
PRKCQ (UniProt Q04759)	1.08 ± 0.099
GRAP (UniProt Q13588)	1.09 ± 0.068
UniProt Q02410 and related entries	0.98 ± 0.11
GALNT2 (UniProt Q10471)	1.05 ± 0.077
SLFN5 (UniProt Q08AF3)	1.1 ± 0.018
UniProt Q13277 and related entries	1.02 ± 0.15
PAK2 (UniProt Q13177)	0.999 ± 0.056
KHDRBS1 (UniProt Q07666)	0.976 ± 0.025
DPYD (UniProt Q12882)	1.05 ± 0.046
UniProt Q12974	1.01 ± 0.063
LGALS3BP (UniProt Q08380)	0.96 ± 0.1
PPAT (UniProt Q06203)	1 ± 0.064
TRIM28 (UniProt Q13263)	1 ± 0.03
UniProt Q13501 and related entries	1.02 ± 0.028

Target	NP40-soluble protein abundance
UniProt Q13029 and related entries	1.06 ± 0.018
RAB33A (UniProt Q14088)	1.12 ± 0.094
UniProt Q13951-2|Q13951	0.9788 ± 0.0094
UniProt Q13724 and related entries	1.06 ± 0.079
UniProt Q13164	1.07 ± 0.033
UniProt Q13469 and related entries	1 ± 0.052
UniProt Q12906 and related entries	0.987 ± 0.053
UniProt Q13574 and related entries	1.04 ± 0.037
EIF4EBP2 (UniProt Q13542)	0.931 ± 0.073
UniProt Q02338 and related entries	1.04 ± 0.072
ITK (UniProt Q08881)	1.06 ± 0.085
OGDH (UniProt Q02218)	1.058 ± 0.0099
UniProt Q12904	0.961 ± 0.072
UniProt Q0VG06 and related entries	1.041 ± 0.0099
UniProt Q01432-5|Q01432 and related entries	1.04 ± 0.048
EEF1A2 (UniProt Q05639)	1.05 ± 0.027
BOP1 (UniProt Q14137)	1.01 ± 0.017
UniProt Q13190 and related entries	1.02 ± 0.0016
DDX10 (UniProt Q13206)	0.938 ± 0.078

Laid out differently: results already given
EIF4EBP2 (UniProt Q13542)
  NP40-soluble protein abundance = 0.931 ± 0.073
UniProt Q13190 and related entries
  NP40-soluble protein abundance = 1.02 ± 0.0016
